Results from the supplement of paper PMC10849652.
This is one part of the list.

The chains behind the UniProt entries cited, without tags or fusion partners. Where a name states a change or a piece, a line headed by the entry shows the natural chain unless it says otherwise.
UniProt Q9NVX2: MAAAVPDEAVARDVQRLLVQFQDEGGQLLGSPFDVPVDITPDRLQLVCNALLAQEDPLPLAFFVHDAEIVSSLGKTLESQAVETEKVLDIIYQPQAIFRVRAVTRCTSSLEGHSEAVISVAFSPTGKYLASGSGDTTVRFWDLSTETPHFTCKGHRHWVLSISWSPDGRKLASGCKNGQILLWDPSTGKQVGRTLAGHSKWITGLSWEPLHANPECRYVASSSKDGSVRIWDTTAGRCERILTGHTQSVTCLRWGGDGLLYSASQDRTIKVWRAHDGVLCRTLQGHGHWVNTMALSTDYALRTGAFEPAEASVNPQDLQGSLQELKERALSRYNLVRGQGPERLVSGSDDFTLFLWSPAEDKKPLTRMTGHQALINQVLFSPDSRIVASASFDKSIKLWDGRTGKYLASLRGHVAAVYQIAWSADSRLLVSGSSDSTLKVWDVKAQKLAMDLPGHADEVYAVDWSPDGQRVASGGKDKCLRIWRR
UniProt Q9UHB4: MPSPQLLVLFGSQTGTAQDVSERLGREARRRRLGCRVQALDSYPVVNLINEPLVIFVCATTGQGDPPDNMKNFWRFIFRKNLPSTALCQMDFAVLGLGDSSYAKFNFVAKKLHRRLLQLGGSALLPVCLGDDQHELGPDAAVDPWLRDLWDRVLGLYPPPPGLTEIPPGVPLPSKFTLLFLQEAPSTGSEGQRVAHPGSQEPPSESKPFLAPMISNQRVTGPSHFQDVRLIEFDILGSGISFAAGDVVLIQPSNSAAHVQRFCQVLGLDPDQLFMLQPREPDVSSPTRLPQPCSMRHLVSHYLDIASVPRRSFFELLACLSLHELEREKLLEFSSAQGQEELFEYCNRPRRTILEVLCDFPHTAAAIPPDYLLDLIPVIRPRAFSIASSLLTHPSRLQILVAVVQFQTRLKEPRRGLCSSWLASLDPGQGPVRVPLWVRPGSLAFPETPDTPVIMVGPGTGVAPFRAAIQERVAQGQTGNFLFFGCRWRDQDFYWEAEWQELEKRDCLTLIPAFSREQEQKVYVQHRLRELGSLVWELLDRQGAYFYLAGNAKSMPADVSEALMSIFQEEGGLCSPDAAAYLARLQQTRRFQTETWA
UniProt Q86X76: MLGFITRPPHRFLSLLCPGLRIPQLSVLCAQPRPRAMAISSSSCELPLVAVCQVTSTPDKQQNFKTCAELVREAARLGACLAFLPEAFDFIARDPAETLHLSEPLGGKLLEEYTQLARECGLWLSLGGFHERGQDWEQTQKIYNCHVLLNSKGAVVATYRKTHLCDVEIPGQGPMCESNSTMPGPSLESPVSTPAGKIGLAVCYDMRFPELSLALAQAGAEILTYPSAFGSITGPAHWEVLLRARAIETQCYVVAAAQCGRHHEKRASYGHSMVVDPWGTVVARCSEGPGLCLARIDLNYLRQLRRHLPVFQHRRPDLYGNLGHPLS
UniProt Q92692, whole entry, looked up: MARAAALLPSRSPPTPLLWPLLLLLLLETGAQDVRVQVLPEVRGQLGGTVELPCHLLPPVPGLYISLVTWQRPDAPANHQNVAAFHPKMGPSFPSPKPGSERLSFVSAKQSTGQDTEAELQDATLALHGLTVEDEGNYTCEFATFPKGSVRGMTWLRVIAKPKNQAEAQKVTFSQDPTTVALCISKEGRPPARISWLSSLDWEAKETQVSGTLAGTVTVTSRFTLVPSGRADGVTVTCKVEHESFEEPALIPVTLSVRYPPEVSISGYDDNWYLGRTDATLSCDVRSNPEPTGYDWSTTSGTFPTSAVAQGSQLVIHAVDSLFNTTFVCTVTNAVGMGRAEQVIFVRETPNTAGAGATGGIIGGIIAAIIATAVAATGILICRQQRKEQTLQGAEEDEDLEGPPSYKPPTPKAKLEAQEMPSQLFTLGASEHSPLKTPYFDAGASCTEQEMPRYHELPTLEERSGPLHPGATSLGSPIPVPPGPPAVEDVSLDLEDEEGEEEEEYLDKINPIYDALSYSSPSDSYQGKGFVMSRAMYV
UniProt Q92597: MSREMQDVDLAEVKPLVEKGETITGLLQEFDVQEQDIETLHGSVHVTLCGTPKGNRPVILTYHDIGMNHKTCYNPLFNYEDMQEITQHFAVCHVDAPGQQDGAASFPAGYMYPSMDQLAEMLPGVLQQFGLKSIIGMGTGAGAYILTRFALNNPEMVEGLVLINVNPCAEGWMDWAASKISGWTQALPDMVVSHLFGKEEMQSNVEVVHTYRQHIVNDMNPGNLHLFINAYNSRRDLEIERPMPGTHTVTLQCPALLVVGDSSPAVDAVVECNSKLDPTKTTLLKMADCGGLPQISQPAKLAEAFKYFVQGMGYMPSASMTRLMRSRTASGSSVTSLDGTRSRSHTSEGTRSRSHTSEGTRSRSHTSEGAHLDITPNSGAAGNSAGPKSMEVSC
UniProt Q9NX14, whole entry, looked up: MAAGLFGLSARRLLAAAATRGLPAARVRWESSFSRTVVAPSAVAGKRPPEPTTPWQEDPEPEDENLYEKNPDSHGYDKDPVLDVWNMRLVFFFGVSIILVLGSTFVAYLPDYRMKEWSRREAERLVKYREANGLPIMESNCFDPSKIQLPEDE
UniProt Q12857, whole entry, looked up: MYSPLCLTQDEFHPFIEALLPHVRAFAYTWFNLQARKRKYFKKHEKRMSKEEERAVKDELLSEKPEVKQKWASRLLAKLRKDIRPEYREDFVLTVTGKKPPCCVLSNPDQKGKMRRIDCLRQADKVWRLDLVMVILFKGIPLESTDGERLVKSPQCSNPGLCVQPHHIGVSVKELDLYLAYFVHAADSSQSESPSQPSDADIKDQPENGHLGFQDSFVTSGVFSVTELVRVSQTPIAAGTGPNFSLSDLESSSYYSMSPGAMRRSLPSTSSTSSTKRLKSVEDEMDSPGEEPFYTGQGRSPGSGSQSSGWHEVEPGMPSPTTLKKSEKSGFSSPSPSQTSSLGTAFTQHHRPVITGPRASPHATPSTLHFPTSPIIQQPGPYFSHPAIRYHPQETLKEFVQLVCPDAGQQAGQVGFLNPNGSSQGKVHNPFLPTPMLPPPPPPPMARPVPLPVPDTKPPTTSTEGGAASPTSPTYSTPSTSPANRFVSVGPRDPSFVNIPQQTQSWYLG
UniProt Q16621: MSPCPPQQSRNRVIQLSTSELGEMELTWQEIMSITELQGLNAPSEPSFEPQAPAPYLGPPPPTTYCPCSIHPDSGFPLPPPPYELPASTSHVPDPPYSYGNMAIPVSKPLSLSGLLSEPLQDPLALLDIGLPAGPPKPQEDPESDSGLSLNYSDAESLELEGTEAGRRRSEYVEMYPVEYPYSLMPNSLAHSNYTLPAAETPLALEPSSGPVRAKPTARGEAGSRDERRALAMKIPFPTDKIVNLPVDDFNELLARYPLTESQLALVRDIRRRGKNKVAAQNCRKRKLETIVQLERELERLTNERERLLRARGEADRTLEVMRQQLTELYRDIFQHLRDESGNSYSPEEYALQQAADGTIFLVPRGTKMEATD
UniProt O95169, whole entry, looked up: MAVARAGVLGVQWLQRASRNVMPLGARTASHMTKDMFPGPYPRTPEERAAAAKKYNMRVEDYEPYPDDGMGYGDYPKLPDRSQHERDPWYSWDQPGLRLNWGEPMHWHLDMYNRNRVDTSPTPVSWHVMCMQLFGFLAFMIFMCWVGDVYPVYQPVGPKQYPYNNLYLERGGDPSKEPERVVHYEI
UniProt Q9BT67: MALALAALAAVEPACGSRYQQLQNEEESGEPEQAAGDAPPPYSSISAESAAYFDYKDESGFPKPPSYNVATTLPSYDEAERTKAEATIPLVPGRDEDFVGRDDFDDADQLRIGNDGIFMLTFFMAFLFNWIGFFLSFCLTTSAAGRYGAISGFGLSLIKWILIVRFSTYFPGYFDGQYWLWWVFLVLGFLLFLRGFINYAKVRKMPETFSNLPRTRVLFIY
UniProt Q9NXR1: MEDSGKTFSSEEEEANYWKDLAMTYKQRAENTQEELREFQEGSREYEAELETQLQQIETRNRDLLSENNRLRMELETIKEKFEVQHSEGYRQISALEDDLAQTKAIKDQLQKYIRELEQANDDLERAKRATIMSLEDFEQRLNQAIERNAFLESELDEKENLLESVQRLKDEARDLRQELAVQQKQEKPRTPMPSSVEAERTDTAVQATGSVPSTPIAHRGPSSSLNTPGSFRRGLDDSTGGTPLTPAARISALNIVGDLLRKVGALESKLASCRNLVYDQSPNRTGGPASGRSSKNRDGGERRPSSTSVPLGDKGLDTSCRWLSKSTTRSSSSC
UniProt O95182, whole entry, looked up: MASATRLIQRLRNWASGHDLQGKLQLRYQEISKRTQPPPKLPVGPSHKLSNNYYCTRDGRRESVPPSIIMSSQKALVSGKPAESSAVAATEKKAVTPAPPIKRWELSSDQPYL

How the values were obtained:
Assay in all cases: log2 fold change, soluble protein after heating vs DMSO (PISA); higher = thermal stabilisation; K562 lysate, 10 uM; active = over 0.2 and 3.5 SD of the protein, either way, in both replicates (recomputed)
[1] = compound: CS(=O)(=O)CCNCc1ccc(-c2ccc3ncnc(Nc4ccc(OCc5cccc(F)c5)c(Cl)c4)c3c2)o1 [lapatinib]
Method in brief: (§1)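 Thermal stability, expressed as log-two fold change relative to solvent controls, is given from duplicates. Crude K562 extract in PBS pH 7.4 with 1 mM MgCl2, at 1 mg/mL protein, was treated with 10 μM compound for 30 min and heated in aliquots for 3 min across 48°C-58°C. After pooling, adjustment to 0.5% NP-40 at 4°C and centrifugation at 21,000xg for 90 min, supernatant protein was measured by TMTpro 16plex LC-MS/MS with channel sums equalised.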

[2] = compound: CS(=O)(=O)N1CCN(Cc2cc3nc(-c4cccc5[nH]ncc45)nc(N4CCOCC4)c3s2)CC1 [pictilisib]
Method in brief: as §1

[3] = compound: C[C@@H](Oc1cc(-c2cnn(C3CCNCC3)c2)cnc1N)c1c(Cl)ccc(F)c1Cl [crizotinib]
Method in brief: as §1

[4] = compound: C[C@H](C1=CC=C(C=C1)C(=O)NC2=C3C=CNC3=NC=C2)N
Method in brief: as §1

[5] = compound: C[C@H](Nc1ncnc2nc[nH]c12)c1cc2cccc(Cl)c2c(=O)n1-c1ccccc1 [duvelisib]
Method in brief: as §1

[6] = compound: Cc1cc(Nc2cc(CN3CCOCC3)c3nc(C)c(Cc4ccc(Cl)cc4F)n3n2)n[nH]1 [gandotinib]
Method in brief: as §1

[7] = compound: Cc1cc(Nc2cc(N3CCN(C)CC3)nc(Sc3ccc(NC(=O)C4CC4)cc3)n2)n[nH]1 [tozasertib]
Method in brief: as §1

[8] = compound: Cc1ccc(-n2nc(C(C)(C)C)cc2NC(=O)Nc2ccc(OCCN3CCOCC3)c3ccccc23)cc1 [doramapimod]
Method in brief: as §1

[9] = compound: Cc1ccc(NC(=O)c2ccc(CN3CC[C@H](N(C)C)C3)c(C(F)(F)F)c2)cc1Nc1nccc(-c2cncnc2)n1 [bafetinib]
Method in brief: as §1

[10] = compound: Cc1cccc(CC(=O)N2CCc3c2ccc(-c2cn(C)c4ncnc(N)c24)c3F)n1
Method in brief: as §1

[11] = compound: Cc1cn(-c2cc(NC(=O)c3ccc(C)c(Nc4nccc(-c5cccnc5)n4)c3)cc(C(F)(F)F)c2)cn1 [nilotinib]
Method in brief: as §1

[12] = compound: Cc1nc(Nc2n[nH]c3c2CN(C(=O)N[C@H](CN(C)C)c2ccccc2)C3(C)C)c2sccc2n1
Method in brief: as §1

[13] = compound: Cc1nc(Nc2ncc(C(=O)Nc3c(C)cccc3Cl)s2)cc(N2CCN(CCO)CC2)n1 [dasatinib]
Method in brief: as §1

[14] = compound: Cc1ncc(-c2ccnc(Nc3ccc(S(C)(=O)=O)cc3)n2)n1C(C)C
Method in brief: as §1

[15] = compound: Cn1cc(-c2ccc3c(c2)CCN3C(=O)Cc2cccc(C(F)(F)F)c2)c2c(N)ncnc21
Method in brief: as §1

[16] = compound: Cn1cc(CNCC2CCN(c3ncc(C(=O)NO)cn3)CC2)c2ccccc21 [quisinostat]
Method in brief: as §1

[17] = compound: Cn1cncc1[C@@](N)(c1ccc(Cl)cc1)c1ccc2c(c1)c(-c1cccc(Cl)c1)cc(=O)n2C [tipifarnib]
Method in brief: as §1

[18] = compound: NC(=O)Nc1cc(-c2cccc(F)c2)sc1C(=O)N[C@H]1CCCNC1
Method in brief: as §1

[19] = compound: NC(=O)c1cnc(N[C@@H]2CCCC[C@@H]2N)nc1Nc1cccc(-n2nccn2)c1
Method in brief: as §1

[20] = compound: NC1(c2ccc(-c3nc4ccn5c(=O)[nH]nc5c4cc3-c3ccccc3)cc2)CCC1
Method in brief: as §1

Measured: log2 fold change

NLE1 (UniProt Q9NVX2)
inactive: [1] 0.028 | [2] -0.016 | [3] -0.001 | [4] 0.002 | [5] 0.04 | [6] 0.006 | [7] -0.016 | [8] 0.034 | [9] -0.001 | [10] -0.042 | [11] 0.013 | [12] -0.005 | [13] -0.027 | [14] 0.038 | [15] -0.026 | [16] 0.02 | [17] 0.044 | [18] -0.034 | [19] 0.01 | [20] -0.019

NDOR1 isoform 2 (UniProt Q9UHB4)
inactive: [1] 0.197 | [2] -0.146 | [3] 0.022 | [4] -0.057 | [5] -0.05 | [6] -0.011 | [7] -0.028 | [8] -0.009 | [9] 0.007 | [10] 0.075 | [11] 0.041 | [12] 0.045 | [13] -0.039 | [14] 0.035 | [15] 0.056 | [16] 0.008 | [17] -0.016 | [18] -0.02 | [19] 0.049 | [20] -0.035

NIT1 (UniProt Q86X76)
inactive: [1] 0.028 | [2] -0.034 | [3] -0.024 | [4] -0.089 | [5] -0.08 | [6] 0.038 | [7] -0.008 | [8] -0.001 | [9] 0.005 | [10] 0.017 | [11] -0.002 | [12] -0.002 | [13] -0.039 | [14] -0.022 | [15] -0.064 | [16] -0.064 | [17] 0.035 | [18] 0.023 | [19] -0.007 | [20] -0.028

NECTIN2 (UniProt Q92692)
inactive: [1] -0.05 | [2] -0.058 | [3] 0.019 | [4] -0.066 | [5] 0.041 | [6] 0.029 | [7] -0.015 | [8] -0.027 | [9] 0.038 | [10] -0.044 | [11] 0.032 | [12] -0.03 | [13] -0.029 | [14] 0.014 | [15] -0.002 | [16] -0.009 | [17] 0.023 | [18] -0.021 | [19] 0.015 | [20] 0.038

NDRG1 (UniProt Q92597)
inactive: [1] 0.088 | [2] -0.06 | [3] 0.081 | [4] 0.141 | [5] -0.282 | [6] 0.159 | [8] 0.057 | [9] -0.181 | [10] -0.034 | [13] -0.145 | [15] 0.254 | [16] -0.024 | [18] -0.02 | [19] -0.098 | [20] 0.073

NDUFB11 isoform 2 (UniProt Q9NX14)
inactive: [1] -0.006 | [2] -0.008 | [3] 0.028 | [4] 0.057 | [5] 0.017 | [6] -0.027 | [7] 0.025 | [8] -0.032 | [9] -0.008 | [10] 0.002 | [11] 0.096 | [12] -0.014 | [13] -0.049 | [14] 0.115 | [15] -0.003 | [16] 0.043 | [17] 0.03 | [18] -0.045 | [19] -0.003 | [20] -0.029

NFIA isoform 4 (UniProt Q12857)
inactive: [1] 0.052 | [2] 0.009 | [3] 0.043 | [4] -0.113 | [5] 0.027 | [6] 0.225 | [8] 0.017 | [9] -0.082 | [10] 0.111 | [11] -0.033 | [12] 0.059 | [13] 0.004 | [14] 0.016 | [15] 0.118 | [16] 0.024 | [17] -0.066 | [18] 0.037 | [19] 0.078 | [20] 0.009

NFE2 (UniProt Q16621)
inactive: [1] 0.031 | [2] 0.009 | [3] -0.106 | [4] 0.002 | [5] -0.05 | [6] 0.135 | [7] 0.024 | [8] 0.002 | [9] -0.077 | [10] 0.013 | [11] 0.007 | [12] -0.011 | [13] 0.028 | [14] 0.027 | [15] -0.032 | [16] -0.048 | [17] -0.026 | [18] -0.007 | [19] 0.002 | [20] 0.065

NDUFB8 (UniProt O95169)
inactive: [1] 0.049 | [2] 0.039 | [3] 0.015 | [4] 0.067 | [5] -0.029 | [6] -0.025 | [7] 0.059 | [8] -0.018 | [9] -0.014 | [10] -0.014 | [11] 0.066 | [12] 0.006 | [13] -0.027 | [14] 0.095 | [15] -0.012 | [16] 0 | [17] -0.02 | [18] -0.034 | [19] -0.012 | [20] -0.017

Quoted from the results shown (two entries):
NDUFB11 isoform 2 (UniProt Q9NX14)
inactive: [1] -0.006 | [2] -0.008 | [3] 0.028 | [4] 0.057 | [5] 0.017 | [6] -0.027 | [7] 0.025 | [8] -0.032 | [9] -0.008 | [10] 0.002 | [11] 0.096 | [12] -0.014 | [13] -0.049 | [14] 0.115 | [15] -0.003 | [16] 0.043 | [17] 0.03 | [18] -0.045 | [19] -0.003 | [20] -0.029

NFIA isoform 4 (UniProt Q12857)
inactive: [1] 0.052 | [2] 0.009 | [3] 0.043 | [4] -0.113 | [5] 0.027 | [6] 0.225 | [8] 0.017 | [9] -0.082 | [10] 0.111 | [11] -0.033 | [12] 0.059 | [13] 0.004 | [14] 0.016 | [15] 0.118 | [16] 0.024 | [17] -0.066 | [18] 0.037 | [19] 0.078 | [20] 0.009

Further entries

NDFIP1 (UniProt Q9BT67)
inactive: [1] -0.092 | [2] -0.001 | [3] -0.046 | [4] -0.003 | [5] -0.092 | [6] 0.006 | [8] -0.065 | [9] -0.257 | [10] 0.061 | [11] 0.082 | [12] 0.001 | [13] -0.009 | [14] 0.163 | [15] 0.109 | [16] -0.011 | [17] -0.055 | [18] 0.071 | [19] 0.034 | [20] -0.043

NDE1 isoform 1 (UniProt Q9NXR1)
inactive: [1] 0.009 | [2] -0.034 | [3] 0.063 | [4] -0.052 | [5] 0.034 | [6] 0.086 | [7] -0.025 | [8] 0.018 | [9] -0.021 | [10] 0.048 | [11] 0.046 | [12] 0.005 | [13] 0.019 | [14] -0.011 | [15] 0.039 | [16] -0.023 | [17] -0.014 | [18] -0.02 | [19] 0.035 | [20] -0.028

NDUFA7 (UniProt O95182)
inactive: [1] 0.017 | [2] 0.029 | [3] -0.02 | [4] 0.001 | [5] 0.002 | [6] -0.007 | [7] 0.019 | [8] -0.047 | [9] -0.085 | [10] 0.002 | [11] -0.017 | [12] 0.016 | [13] -0.01 | [14] -0.014 | [15] -0.02 | [16] -0.026 | [17] 0.009 | [18] 0.027 | [19] -0.047 | [20] 0.023
